Among the data in publication PMC2758594 are binding values, retold here.

No constants are given. Whether binding was seen depends on the method and setting. Binding seen in cells or lysates may run through a third protein. Binding calls can cover weak binding; strength is not graded here.

The target of the assay is T1, endogenous hARD1 (human (endogenous in HT1080)) (UniProt P41227).
T1 sequence: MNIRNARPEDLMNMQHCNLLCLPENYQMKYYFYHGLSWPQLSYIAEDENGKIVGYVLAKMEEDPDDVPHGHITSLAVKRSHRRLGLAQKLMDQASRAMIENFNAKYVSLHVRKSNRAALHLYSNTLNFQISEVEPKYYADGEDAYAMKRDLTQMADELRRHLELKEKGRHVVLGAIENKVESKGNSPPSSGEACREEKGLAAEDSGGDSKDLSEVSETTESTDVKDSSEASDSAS
Put plainly: co-IP; endogenous proteins in HT1080 cells; IP with anti-ARD1, blot with anti-MLCK; cross-checked by changing antibodies.

For the substance “endogenous long MLCK (human (endogenous in HT1080))”, the binding result is “binds”.
